Test results as given in the supplement of paper PMC6411743.
± gives the standard deviation of the averaged measurements. Some of the results follow.

Chains of the proteins cited; added tags and fusions are not shown. Lines headed by an entry give the natural chain unless they say otherwise; changes in a name come on top.
UniProt O14662: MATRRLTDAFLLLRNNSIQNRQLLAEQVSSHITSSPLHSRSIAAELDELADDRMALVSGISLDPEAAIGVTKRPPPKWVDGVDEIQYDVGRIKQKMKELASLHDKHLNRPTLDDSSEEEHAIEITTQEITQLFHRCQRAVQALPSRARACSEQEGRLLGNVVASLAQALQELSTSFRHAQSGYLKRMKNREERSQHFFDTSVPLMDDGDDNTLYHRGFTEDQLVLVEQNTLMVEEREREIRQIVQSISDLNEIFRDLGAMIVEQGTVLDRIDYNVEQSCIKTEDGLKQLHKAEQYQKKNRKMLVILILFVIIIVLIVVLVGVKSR
UniProt Q6NXR4: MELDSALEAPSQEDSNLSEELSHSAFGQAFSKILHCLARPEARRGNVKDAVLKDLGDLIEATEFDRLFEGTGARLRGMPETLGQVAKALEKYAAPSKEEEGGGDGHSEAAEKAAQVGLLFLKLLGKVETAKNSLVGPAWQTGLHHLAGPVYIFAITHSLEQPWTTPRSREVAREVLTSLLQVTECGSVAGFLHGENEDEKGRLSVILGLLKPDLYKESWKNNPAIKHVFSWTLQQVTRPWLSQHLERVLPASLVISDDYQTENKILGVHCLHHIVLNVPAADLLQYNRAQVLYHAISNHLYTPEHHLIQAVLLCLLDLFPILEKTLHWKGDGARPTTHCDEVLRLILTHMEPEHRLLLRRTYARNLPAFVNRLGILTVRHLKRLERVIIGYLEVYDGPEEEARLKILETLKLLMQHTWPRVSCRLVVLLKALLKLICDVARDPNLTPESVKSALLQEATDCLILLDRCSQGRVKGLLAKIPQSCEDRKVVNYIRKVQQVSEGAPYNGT
UniProt Q9NVA2: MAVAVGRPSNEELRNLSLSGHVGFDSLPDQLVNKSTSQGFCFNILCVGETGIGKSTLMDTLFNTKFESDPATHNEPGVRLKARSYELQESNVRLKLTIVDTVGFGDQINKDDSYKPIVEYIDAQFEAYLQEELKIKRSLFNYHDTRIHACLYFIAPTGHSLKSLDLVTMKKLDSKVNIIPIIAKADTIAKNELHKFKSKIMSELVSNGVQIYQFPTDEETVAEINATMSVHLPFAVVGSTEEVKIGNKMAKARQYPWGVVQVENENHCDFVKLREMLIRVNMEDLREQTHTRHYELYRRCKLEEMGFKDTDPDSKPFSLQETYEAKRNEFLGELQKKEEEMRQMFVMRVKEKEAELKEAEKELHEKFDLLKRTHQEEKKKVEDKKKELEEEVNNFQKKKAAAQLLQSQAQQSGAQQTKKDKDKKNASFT
UniProt O00244: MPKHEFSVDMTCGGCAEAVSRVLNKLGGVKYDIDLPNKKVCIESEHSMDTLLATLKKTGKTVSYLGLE
UniProt P55212: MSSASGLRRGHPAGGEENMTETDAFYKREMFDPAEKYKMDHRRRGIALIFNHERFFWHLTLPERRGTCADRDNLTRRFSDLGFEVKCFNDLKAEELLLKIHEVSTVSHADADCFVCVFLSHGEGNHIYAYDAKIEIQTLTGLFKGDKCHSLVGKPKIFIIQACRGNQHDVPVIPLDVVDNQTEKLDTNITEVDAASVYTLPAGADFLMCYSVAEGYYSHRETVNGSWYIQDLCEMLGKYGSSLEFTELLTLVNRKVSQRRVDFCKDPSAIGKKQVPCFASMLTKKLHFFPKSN
UniProt P15954, whole entry: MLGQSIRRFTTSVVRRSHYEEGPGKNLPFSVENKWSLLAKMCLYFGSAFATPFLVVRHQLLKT
UniProt Q9H000: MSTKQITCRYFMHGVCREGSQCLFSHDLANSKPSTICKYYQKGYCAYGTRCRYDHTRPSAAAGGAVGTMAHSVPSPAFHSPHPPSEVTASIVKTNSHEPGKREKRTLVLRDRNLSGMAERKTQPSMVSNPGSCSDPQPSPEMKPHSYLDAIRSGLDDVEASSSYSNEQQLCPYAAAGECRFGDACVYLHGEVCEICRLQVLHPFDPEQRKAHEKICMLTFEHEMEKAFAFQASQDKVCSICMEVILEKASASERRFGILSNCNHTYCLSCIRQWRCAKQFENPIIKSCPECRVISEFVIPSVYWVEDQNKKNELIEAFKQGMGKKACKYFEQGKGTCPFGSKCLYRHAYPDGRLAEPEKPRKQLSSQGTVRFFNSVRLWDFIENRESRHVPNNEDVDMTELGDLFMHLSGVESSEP
UniProt P11142, whole entry, looked up: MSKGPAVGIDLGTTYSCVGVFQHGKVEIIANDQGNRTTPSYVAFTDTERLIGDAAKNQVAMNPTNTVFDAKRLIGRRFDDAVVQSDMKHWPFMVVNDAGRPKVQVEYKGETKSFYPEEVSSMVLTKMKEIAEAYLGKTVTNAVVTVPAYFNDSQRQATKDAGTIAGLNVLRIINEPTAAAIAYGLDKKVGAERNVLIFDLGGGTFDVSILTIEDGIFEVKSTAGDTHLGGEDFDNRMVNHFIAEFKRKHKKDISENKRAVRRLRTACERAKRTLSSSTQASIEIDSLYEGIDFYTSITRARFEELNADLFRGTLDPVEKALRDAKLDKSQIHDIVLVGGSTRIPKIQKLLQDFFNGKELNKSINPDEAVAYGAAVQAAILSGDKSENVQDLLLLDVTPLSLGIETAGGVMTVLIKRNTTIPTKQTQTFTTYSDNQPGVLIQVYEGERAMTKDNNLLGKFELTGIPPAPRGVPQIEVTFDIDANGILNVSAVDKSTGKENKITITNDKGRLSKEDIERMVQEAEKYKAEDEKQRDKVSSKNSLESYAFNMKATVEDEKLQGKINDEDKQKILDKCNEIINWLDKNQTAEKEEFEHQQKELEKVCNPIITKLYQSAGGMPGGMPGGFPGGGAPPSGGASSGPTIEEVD
UniProt Q32M88: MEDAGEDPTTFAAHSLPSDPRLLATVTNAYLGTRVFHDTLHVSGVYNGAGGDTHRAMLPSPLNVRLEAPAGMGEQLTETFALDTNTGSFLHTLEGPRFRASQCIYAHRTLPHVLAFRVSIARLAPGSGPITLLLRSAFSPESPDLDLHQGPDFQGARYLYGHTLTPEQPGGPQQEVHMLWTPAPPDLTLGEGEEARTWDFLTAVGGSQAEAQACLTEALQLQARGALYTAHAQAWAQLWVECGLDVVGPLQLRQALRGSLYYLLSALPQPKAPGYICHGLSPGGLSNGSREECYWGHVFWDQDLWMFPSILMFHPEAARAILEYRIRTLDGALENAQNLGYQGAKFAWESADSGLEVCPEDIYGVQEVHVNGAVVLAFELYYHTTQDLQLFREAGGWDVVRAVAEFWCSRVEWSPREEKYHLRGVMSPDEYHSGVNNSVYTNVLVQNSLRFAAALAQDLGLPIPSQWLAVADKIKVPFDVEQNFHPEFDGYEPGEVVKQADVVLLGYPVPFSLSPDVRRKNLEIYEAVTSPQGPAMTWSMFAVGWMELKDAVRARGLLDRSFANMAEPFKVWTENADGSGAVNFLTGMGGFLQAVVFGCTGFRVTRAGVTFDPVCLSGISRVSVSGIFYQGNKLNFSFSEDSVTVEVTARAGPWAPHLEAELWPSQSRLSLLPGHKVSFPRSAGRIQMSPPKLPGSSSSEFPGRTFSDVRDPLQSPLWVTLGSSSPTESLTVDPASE
UniProt Q13557, whole entry: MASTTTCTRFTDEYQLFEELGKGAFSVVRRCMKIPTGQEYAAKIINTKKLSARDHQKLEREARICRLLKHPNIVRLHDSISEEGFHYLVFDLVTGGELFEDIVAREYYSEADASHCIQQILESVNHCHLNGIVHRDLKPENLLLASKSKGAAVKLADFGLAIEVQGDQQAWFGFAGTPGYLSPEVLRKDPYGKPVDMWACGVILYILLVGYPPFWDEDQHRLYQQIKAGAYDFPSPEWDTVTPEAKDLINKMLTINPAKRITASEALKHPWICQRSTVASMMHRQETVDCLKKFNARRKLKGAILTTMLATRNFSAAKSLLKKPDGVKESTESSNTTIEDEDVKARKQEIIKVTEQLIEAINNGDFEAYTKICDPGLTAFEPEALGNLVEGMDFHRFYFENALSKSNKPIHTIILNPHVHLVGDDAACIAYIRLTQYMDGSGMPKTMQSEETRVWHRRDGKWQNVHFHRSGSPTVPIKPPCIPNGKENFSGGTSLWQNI
UniProt P42892: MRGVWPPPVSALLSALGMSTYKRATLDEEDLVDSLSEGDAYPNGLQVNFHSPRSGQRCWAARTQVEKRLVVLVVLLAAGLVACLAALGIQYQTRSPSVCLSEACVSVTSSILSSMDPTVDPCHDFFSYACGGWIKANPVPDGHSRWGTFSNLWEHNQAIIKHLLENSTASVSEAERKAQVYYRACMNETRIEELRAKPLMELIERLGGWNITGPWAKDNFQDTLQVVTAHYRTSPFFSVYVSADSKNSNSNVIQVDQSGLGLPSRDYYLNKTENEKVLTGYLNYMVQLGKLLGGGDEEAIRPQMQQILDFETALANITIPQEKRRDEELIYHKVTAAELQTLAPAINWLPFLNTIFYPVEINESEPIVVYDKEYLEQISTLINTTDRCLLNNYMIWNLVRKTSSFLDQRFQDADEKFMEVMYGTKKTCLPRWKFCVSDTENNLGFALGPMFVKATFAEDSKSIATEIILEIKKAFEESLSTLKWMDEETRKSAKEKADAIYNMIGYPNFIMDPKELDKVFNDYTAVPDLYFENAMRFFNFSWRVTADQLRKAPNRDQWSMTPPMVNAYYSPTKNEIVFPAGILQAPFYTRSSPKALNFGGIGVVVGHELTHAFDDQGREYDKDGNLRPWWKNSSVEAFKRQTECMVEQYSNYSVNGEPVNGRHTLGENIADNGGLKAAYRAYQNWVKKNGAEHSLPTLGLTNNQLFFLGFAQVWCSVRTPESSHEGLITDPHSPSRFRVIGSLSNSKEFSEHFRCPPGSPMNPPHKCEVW
UniProt O43772: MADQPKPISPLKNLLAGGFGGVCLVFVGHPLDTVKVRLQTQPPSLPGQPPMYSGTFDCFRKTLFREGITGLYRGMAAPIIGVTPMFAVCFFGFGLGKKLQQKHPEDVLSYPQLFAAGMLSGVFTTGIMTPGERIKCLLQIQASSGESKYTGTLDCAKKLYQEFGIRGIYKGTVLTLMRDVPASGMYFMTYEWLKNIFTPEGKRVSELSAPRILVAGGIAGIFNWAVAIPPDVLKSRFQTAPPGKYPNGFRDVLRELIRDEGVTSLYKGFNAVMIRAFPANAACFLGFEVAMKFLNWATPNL
UniProt P08133: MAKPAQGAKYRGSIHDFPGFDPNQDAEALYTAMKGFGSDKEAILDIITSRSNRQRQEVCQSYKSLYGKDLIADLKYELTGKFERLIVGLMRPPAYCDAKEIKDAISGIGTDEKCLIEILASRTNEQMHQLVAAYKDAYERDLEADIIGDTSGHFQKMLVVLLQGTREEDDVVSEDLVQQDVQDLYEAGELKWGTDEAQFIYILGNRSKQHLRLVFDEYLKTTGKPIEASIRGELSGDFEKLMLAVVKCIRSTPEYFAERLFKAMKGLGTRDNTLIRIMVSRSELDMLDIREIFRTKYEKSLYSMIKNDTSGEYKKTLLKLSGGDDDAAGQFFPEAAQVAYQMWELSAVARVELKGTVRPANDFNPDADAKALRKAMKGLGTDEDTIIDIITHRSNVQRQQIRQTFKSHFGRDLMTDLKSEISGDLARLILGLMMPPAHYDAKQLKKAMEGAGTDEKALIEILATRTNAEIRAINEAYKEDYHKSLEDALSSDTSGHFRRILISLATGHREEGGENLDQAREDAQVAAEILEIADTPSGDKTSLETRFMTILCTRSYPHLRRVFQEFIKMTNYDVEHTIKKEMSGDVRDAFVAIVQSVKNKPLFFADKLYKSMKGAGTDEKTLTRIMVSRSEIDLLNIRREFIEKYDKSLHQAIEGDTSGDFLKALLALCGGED
UniProt P43243: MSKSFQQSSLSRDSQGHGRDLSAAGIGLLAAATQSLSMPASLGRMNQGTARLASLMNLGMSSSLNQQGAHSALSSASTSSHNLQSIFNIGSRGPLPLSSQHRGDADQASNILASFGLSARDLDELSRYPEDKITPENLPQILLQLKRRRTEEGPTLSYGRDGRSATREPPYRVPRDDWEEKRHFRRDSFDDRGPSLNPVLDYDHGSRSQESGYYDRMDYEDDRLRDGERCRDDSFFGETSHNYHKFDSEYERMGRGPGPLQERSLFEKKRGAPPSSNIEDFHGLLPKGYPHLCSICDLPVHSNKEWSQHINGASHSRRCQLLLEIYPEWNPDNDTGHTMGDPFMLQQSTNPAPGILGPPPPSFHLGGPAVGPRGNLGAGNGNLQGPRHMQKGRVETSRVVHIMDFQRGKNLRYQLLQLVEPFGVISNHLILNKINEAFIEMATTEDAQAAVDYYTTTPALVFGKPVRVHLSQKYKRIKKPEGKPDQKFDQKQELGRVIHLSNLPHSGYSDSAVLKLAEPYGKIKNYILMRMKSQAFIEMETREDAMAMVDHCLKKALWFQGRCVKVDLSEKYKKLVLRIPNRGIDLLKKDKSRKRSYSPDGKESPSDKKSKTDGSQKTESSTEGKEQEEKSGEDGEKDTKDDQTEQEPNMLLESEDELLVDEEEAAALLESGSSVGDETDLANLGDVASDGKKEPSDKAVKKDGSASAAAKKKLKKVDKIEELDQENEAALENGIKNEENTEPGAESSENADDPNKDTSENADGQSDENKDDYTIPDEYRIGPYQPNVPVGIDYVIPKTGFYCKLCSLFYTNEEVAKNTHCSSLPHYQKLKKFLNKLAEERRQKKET

Each target was assayed with Nc1nc2c(ncn2[C@@H]2O[C@H](COP(=O)(O)OP(=O)(O)OP(=O)(O)O)[C@@H](O)[C@H]2O)c(=O)[nH]1 [guanosine triphosphate] (assay: NP40-soluble protein abundance relative to vehicle (solubility fold change) (ratio); higher = more soluble protein in presence of GTP). Details: concentration: 10mM.
Summary of the method: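 Across three independent experiments, values are fold changes against the detergent-processed vehicle for each replicate, based on vsn-normalised intensities. The samples were Jurkat crude lysate treated with eight concentrations (0.1 to 10 mM) for 10 min at room temperature and then 3 min at 37 °C. Lysate was solubilised with 0.8% NP40 and benzonase, ultracentrifuged, and the supernatant analysed by TMT-labelled LC-MS/MS.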

Q: With “B7ZBM8 and related entries (UniProt O14662)” as the target, how does the NP40-soluble protein abundance read?
A: 1.07 ± 0.057

Q: How did the NP40-soluble protein abundance turn out when “E5RIH5 and related entries (UniProt Q6NXR4)” was run?
A: 1.11 ± 0.04

Q: For “A8MT02 and related entries (UniProt P14678)”, which NP40-soluble protein abundance is on record?
A: 1.44 ± 0.34

Q: With “D6RER5 and related entries (UniProt Q9NVA2)” as the target, how does the NP40-soluble protein abundance read?
A: 0.981 ± 0.1

Q: For “E5RGN3 and related entries (UniProt O00244)”, which NP40-soluble protein abundance is on record?
A: 1.04 ± 0.13

Q: Which NP40-soluble protein abundance does the source give for “D6RHU3 and related entries (UniProt P55212)” here?
A: 0.804 ± 0.084

Q: For “D6R9Z7 and related entries (UniProt P15954)”, which NP40-soluble protein abundance is on record?
A: 1.13 ± 0.16

Q: Which NP40-soluble protein abundance does the source give for “C9J494 and related entries (UniProt Q9H000)” here?
A: 0.93 ± 0.053

Q: For “E7EMW7 and related entries (UniProt O95071)”, which NP40-soluble protein abundance is on record?
A: 1.26 ± 0.3

Q: How did the NP40-soluble protein abundance turn out when “A8K7Q2 and related entries (UniProt P11142)” was run?
A: 0.949 ± 0.11

Q: For “E7EMA9 and related entries (UniProt Q32M88)”, which NP40-soluble protein abundance is on record?
A: 0.897 ± 0.039

Q: With “B4DWF2 and related entries (UniProt Q9UKS7)” as the target, how does the NP40-soluble protein abundance read?
A: 1.35 ± 0.11

Q: Which NP40-soluble protein abundance does the source give for “D6R938 and related entries (UniProt Q13557)” here?
A: 1.14 ± 0.14

Q: Which NP40-soluble protein abundance does the source give for “B4DKB2 and related entries (UniProt P42892)” here?
A: 1.42 ± 0.065

Q: With “C9JPE1 and related entries (UniProt O43772)” as the target, how does the NP40-soluble protein abundance read?
A: 0.871 ± 0.16

Q: For “E5RJF5 and related entries (UniProt P08133)”, which NP40-soluble protein abundance is on record?
A: 0.821 ± 0.055

Q: For “D6RAN4 and related entries (UniProt P32969)”, which NP40-soluble protein abundance is on record?
A: 1.03 ± 0.32

Q: With “A8MUS3 and related entries (UniProt P62750)” as the target, how does the NP40-soluble protein abundance read?
A: 0.96 ± 0.21

Q: “A8MXP9 and related entries (UniProt P43243)” was tested. Which NP40-soluble protein abundance did it give?
A: 1.06 ± 0.072

Q: “B1AHR1 and related entries (UniProt Q9UH03)” was tested. Which NP40-soluble protein abundance did it give?
A: 1.03 ± 0.18
